# Hit rate of the full screen: of about 400,000 compounds, about 5,500 (1.4%) were called active. The inconclusive results got no clear call from the source; some entries with a clear call stand among them for comparison. Calls follow the shape of the dose curve; as a rule, active = well fitted cell-killing curve with a large enough effect; inconclusive = small, poorly fitted or top-dose-only effect, or effect the other way; inactive = flat fitted curve, though single readings scatter. Where the call is inconclusive, the potency comes from a doubtful curve fit.
# Assay: qHTS assay for MDR1-selective chemotherapeutics: Primary screen using the parental adenocarcinoma cell KB-3-1; also: nearly all actives have a fitted effect of over 60% in size
# Details: KB-3-1 viability, CellTiter-Glo ATP luminescence, 72 h; activity change, negative = cytotoxic: at 46.1 µM (top of the series)
# In short: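 Cells are dispensed, compounds pinned in, plates held at 37 °C for 72 h, then CellTiter-Glo is added and luminescence read after 10 minutes. Cell line: parental KB-3-1 in phenol-red-free DMEM, 10% FBS.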
# % is scaled to controls: 0 for no effect and ±100 for the full control effect; potency is read from the fitted curve at half-maximal effect.
SMILES,"activity change, negative = cytotoxic",Potency
Cn1ccc2c(N3CCCCC3)cc3c(c21)C1CCC3C1 (stereo unspecified),inactive: -0.128%,–
O=C(CNC(=O)c1ccccc1Cl)N/N=C/c1ccc([N+](=O)[O-])s1,–,active: 2.59 µM
Cc1ccc(NC(=O)c2ccc3ccccc3n2)cc1S(=O)(=O)N1CCOCC1,inactive: -10.8%,–
O=C(N/N=C/c1c(O)n(Cc2ccccc2)c(=O)c2ccccc12)c1cccnc1,–,active: 18.4 µM
COc1ccc(C(=O)Oc2c(CN3CCOCC3)cc(Cl)c3cccnc23)cc1OC,–,"inconclusive: 3.26 µM [cytotoxic, partial curve, poor fit]"
CC(C)(C)NS(=O)(=O)c1ccc(NC(=O)C(Sc2ccccc2)c2ccccc2)cc1 (stereo unspecified),–,"inconclusive: 35.5 µM [cytotoxic, single point]"
COc1ccc(NC(=O)/C(Cl)=C(/Cl)S(=O)(=O)Cc2ccc(C)cc2)cn1,–,active: 6.51 µM
Brc1ccccc1-n1nnc(-c2ccnc3ccccc23)n1,–,"inconclusive: 29.1 µM [cytotoxic, single point]"
O=C(c1ccc2ccccc2c1)N1CCCC1,inactive: 5.88%,–
COc1ccccc1N1CCN(C(=O)C2CCCN(S(=O)(=O)c3ccc4c(c3)CCCN4C(C)=O)C2)CC1 (stereo unspecified),–,"inconclusive: 20.6 µM [cytotoxic, single point]"
Cn1nc(CC(=O)Nc2ccc(N3CCN(C(=O)OC(C)(C)C)CC3)cc2)c2ccccc2c1=O,–,"inconclusive: 7.31 µM [cytotoxic, partial curve, poor fit]"
CCOc1ccc(CCN2C(=S)N([C@@H](CC(C)C)CN3CCCC3CN3C(=S)NC[C@@H]3Cc3ccc(O)cc3)C[C@@H]2Cc2ccc(O)cc2)cc1 (stereo partly specified),–,"inconclusive: 29.1 µM [cytotoxic, single point]"
COc1cc(Cl)ccc1OCc1cc(C(=O)N(C)Cc2cccc3cnccc23)no1,–,"inconclusive: 20.6 µM [cytotoxic, single point]"
COc1cc(/C=C(/C(=O)c2cccs2)c2nc3ccccc3[nH]2)ccc1O,–,"inconclusive: 10.3 µM [cytotoxic, partial curve]"
Cc1ccc(-c2nc(-c3cc4cc(Cl)ccc4oc3=O)sc2C)cc1,–,"inconclusive: 14.6 µM [rising, partial curve, poor fit]"
COCCNC(=O)C1CCCN(C(=O)c2cc(-c3ccccc3)cs2)CC1 (stereo unspecified),inactive: 0%,–
O=C(CSc1nc2ncc(Cl)cc2[nH]1)NCCc1ccc(F)cc1,–,"inconclusive: 0.0065 µM [rising, full curve]"
Cc1ccc(CN2CC(C(=O)N3CCN(S(=O)(=O)c4ccc(C(C)C)cc4)CC3)CC2=O)cc1 (stereo unspecified),inactive: 3.48%,–
Cc1ccc(C)c(N(C(=O)CNC(=O)c2ccco2)C(C(=O)NC2CCCC2)c2ccncc2)c1 (stereo unspecified),inactive: 2.93%,–
CCOc1ccccc1NC(=O)C(=O)Nc1ccc2nc3n(c(=O)c2c1)CCCCC3,inactive: 6.77%,–
C[C@@H]1CN([C@H](C)CO)C(=O)CCCn2nncc2CO[C@@H]1CN(C)S(=O)(=O)c1ccc(F)cc1,inactive: 2.4%,–
O=C(CN1CCN(C(=O)C2CCC2)CC1)Nc1ccc(F)cc1,inactive: -16.4%,–
Cc1ccc2c(c1)c1cccc3c1n2CCN3CCC(N)=O,–,"inconclusive: 16.4 µM [cytotoxic, single point]"

# Grouped by structure, the compounds so far with a tert-butyl group.
SMILES,"activity change, negative = cytotoxic",Potency
CC(C)(C)NS(=O)(=O)c1ccc(NC(=O)C(Sc2ccccc2)c2ccccc2)cc1 (stereo unspecified),–,"inconclusive: 35.5 µM [cytotoxic, single point]"
Cn1nc(CC(=O)Nc2ccc(N3CCN(C(=O)OC(C)(C)C)CC3)cc2)c2ccccc2c1=O,–,"inconclusive: 7.31 µM [cytotoxic, partial curve, poor fit]"

# Later entries.

SMILES,"activity change, negative = cytotoxic",Potency
Cc1ccccc1-c1cc2nc(NCc3ccncc3)n(C)c(=O)c2s1,inactive: 0%,–
O=C(COC(=O)c1cncc(Br)c1)Nc1ccc(F)c(F)c1F,inactive: 22.6%,–
CCCNC(=O)C1(C)CCCN(Cc2cc(-c3ccccc3)nn2C)C1 (stereo unspecified),–,"inconclusive: 16.4 µM [cytotoxic, single point]"
Cc1cc(C)cc(NC(=O)Cc2noc3ccccc23)c1,–,"inconclusive: 29.1 µM [cytotoxic, single point]"
CC(C)(c1ccccc1)c1ccc(OCC(O)CNC2CCN(Cc3ccccc3)CC2)cc1 (stereo unspecified),–,"inconclusive: 18.4 µM [cytotoxic, single point]"
CC(=O)Nc1cc[n+](CC(=O)c2cccc([N+](=O)[O-])c2)cc1,inactive: 2.26%,–
CCOC(=O)C1Nc2ccc(C(F)(F)F)cc2C2c3ccccc3CC12 (stereo unspecified),–,active: 16.4 µM
O=C(CNc1cc(S(=O)(=O)N2CCCC2)ccc1OCC(F)(F)F)Nc1cccc(C(F)(F)F)c1,–,active: 20.6 µM
COc1ccc(CN2CCNC(=O)C2CC(=O)N(C)Cc2ccon2)c(OC)c1 (stereo unspecified),–,"inconclusive: 32.6 µM [rising, single point]"
CC(=O)Nc1ccc(NC(=O)CSc2ncnc3sc(C)c(C)c23)cc1,inactive: -4.13%,–
COc1c(Cl)cc(Cl)cc1C(=O)Nc1cccc(-c2nc3ccccc3o2)c1C,inactive: 10.2%,–
COc1cc2c(cc1OC)CN(c1ccc(C(N)=O)cc1[N+](=O)[O-])CC2,inactive: -3.7%,–
CCOc1cc(NC(=O)CCl)c(OCC)cc1NC(=O)CCl,–,active: 20.6 µM
Cc1ccn2c(=O)nc(SCc3cccc(C(F)(F)F)c3)nc2c1,–,"inconclusive: 5.8 µM [cytotoxic, partial curve, poor fit]"
Cc1c(N2C(=O)/C(=C\c3cccc4ccccc34)SC2=S)c(=O)n(-c2ccccc2)n1C,–,"inconclusive: 20.6 µM [rising, partial curve, poor fit]"
Cc1ccc(CN2CC(N3CCCC3)CS2(=O)=O)cc1 (stereo unspecified),inactive: 0.0573%,–
COc1cccc(CN(C)Cc2cc(=O)oc3c(C)c(C)ccc23)c1,–,active: 16.4 µM
Cc1ccc(-c2nc(S(=O)(=O)c3ccc(C)cc3)c(SCC(N)=O)o2)cc1,–,"inconclusive: 29.1 µM [rising, single point]"
Cc1c2cnn(-c3ccccc3)c(=O)c2c(C)n1C(C)C(=O)Nc1ccccc1C(F)(F)F (stereo unspecified),inactive: 0%,–
Cc1cccc(CCNC(=O)c2cc(S(=O)(=O)N3CCCCC3)c[nH]2)c1,inactive: 5.19%,–
O=C(COc1ccc2ccccc2c1CN1CCOCC1)N1CCc2ccccc21,–,"inconclusive: 23.1 µM [cytotoxic, partial curve, poor fit]"
CCCC(c1nnnn1C(C)(C)CC)N(Cc1ccco1)Cc1cc2ccc(OC)cc2[nH]c1=O (stereo unspecified),–,"inconclusive: 18.4 µM [cytotoxic, single point]"
Cc1ccc2[nH]c(=O)c(C3C(C#N)=C(N)Oc4c3ccc3cccnc43)cc2c1 (stereo unspecified),–,active: 16.4 µM

# — PubChem BioAssay AID1347075 (National Center for Advancing Translational Sciences (NCATS), 2019)
